Reference: PMC11223475
These are yes or no findings as the source states them, for the method shown. Binding calls can cover weak binding; strength is not graded here. Where a sequence is shown, tags or fusion partners need not be part of it.

Biological target: Bacillus megaterium gas vesicle (GV) shell composed of GvpB (Bacillus megaterium)
Experiment: flow cytometry of isolated gas vesicles; GvpC^eGFP coexpressed simultaneously with wt-GVs, GVs isolated and analysed

binding: binds
B1: GvpC^eGFP coexpressed with wt-GVs (GvpC from Anabaena flos-aquae with C-terminal eGFP) (protein, UniProt P09413 1-193)
chain: MISLMAKIRQEHQSIAEKVAELSLETREFLSVTTAKRQEQAEKQAQELQAFYKDLQETSQQFLSETAQARIAQAEKQAQELLAFHKELQETSQQFLSATAQARIAQAEKQAQELLAFYQEVRETSQQFLSATAQARIAQAEKQAQELLAFHKELQETSQQFLSATADARTAQAKEQKESLLKFRQDLFVSIFG
